Assay [1] deals with T1, CPN20 of Arabidopsis total protein extracts (Arabidopsis thaliana (endogenous in Arabidopsis)) (UniProt O65282).
T1 sequence: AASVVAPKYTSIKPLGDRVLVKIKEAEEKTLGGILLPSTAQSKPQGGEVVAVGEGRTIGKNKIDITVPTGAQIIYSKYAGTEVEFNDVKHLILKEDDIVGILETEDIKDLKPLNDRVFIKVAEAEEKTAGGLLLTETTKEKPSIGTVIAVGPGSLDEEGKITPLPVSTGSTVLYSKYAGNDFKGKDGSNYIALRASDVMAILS
Briefly: co-IP; Arabidopsis total protein extracts; IP with anti-CPN20 serum, blot with anti-ABAR serum; preimmune serum as negative control.

The target in assay [2] is T2, BD-ABAR_(348–1038), middle fragment (amino acid residues 348–1038) of ABAR fused to the GAL4 DNA binding domain (Arabidopsis thaliana) (UniProt Q9FNB0).
T2 sequence: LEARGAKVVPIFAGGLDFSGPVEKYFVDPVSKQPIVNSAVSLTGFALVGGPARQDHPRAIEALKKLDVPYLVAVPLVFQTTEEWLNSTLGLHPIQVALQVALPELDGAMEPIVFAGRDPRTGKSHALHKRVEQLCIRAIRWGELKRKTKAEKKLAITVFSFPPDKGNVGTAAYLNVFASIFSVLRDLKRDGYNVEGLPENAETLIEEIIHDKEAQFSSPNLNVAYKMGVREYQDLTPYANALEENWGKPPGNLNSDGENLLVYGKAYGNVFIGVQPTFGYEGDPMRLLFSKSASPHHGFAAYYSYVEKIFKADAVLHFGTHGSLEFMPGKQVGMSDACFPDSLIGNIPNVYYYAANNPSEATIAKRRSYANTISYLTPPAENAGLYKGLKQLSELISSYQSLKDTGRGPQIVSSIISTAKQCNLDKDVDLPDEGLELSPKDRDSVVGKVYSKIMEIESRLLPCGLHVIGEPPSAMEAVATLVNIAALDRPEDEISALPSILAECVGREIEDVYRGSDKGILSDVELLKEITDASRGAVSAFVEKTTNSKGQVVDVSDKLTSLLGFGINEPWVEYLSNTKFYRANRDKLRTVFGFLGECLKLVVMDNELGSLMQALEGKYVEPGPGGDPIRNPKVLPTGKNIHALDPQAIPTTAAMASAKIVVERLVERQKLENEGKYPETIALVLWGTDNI
As to the kind of experiment: co-IP; from yeast total proteins; anti-HA (CPN20) and anti-c-Myc (ABAR) antisera; preimmune serum as negative control.

Assay [3] deals with T2, BD-ABAR_(348–1038), middle fragment (amino acid residues 348–1038) of ABAR fused to the GAL4 DNA binding domain (Arabidopsis thaliana). As to the kind of experiment: two-hybrid; pairwise test in yeast strain AH109, bait in pGBKT7, prey in pGADT7; growth on Leu-Trp-His-Ade-deficient medium (SD4-), 5-7 days at 30 °C.

Results are given in words; binding and its absence hold for the method and conditions named. For part of these data: Binding seen in cells or lysates may run through a third protein. Some binding calls cover weakened binding; strength is not graded here. For part of these data: Where a sequence is shown, tags or fusion partners need not be part of it.

B1: ABAR protein (~150 kD) of Arabidopsis total protein extracts (protein, UniProt Q9FNB0 50-1381)
chain: AVSGNGLFTQTNPEVRRIVPIKRDNVPTVKIVYVVLEAQYQSSLSEAVQSLNKTSRFASYEVVGYLVEELRDKNTYNNFCEDLKDANIFIGSLIFVEELAIKVKDAVEKERDRMDAVLVFPSMPEVMRLNKLGSFSMSQLGQSKSPFFQLFKRKKQGSAGFADSMLKLVRTLPKVLKYLPSDKAQDARLYILSLQFWLGGSPDNLQNFVKMISGSYVPALKGVKIEYSDPVLFLDTGIWHPLAPTMYDDVKEYWNWYDTRRDTNDSLKRKDATVVGLVLQRSHIVTGDDSHYVAVIMELEARGAKVVPIFAGGLDFSGPVEKYFVDPVSKQPIVNSAVSLTGFALVGGPARQDHPRAIEALKKLDVPYLVAVPLVFQTTEEWLNSTLGLHPIQVALQVALPELDGAMEPIVFAGRDPRTGKSHALHKRVEQLCIRAIRWGELKRKTKAEKKLAITVFSFPPDKGNVGTAAYLNVFASIFSVLRDLKRDGYNVEGLPENAETLIEEIIHDKEAQFSSPNLNVAYKMGVREYQDLTPYANALEENWGKPPGNLNSDGENLLVYGKAYGNVFIGVQPTFGYEGDPMRLLFSKSASPHHGFAAYYSYVEKIFKADAVLHFGTHGSLEFMPGKQVGMSDACFPDSLIGNIPNVYYYAANNPSEATIAKRRSYANTISYLTPPAENAGLYKGLKQLSELISSYQSLKDTGRGPQIVSSIISTAKQCNLDKDVDLPDEGLELSPKDRDSVVGKVYSKIMEIESRLLPCGLHVIGEPPSAMEAVATLVNIAALDRPEDEISALPSILAECVGREIEDVYRGSDKGILSDVELLKEITDASRGAVSAFVEKTTNSKGQVVDVSDKLTSLLGFGINEPWVEYLSNTKFYRANRDKLRTVFGFLGECLKLVVMDNELGSLMQALEGKYVEPGPGGDPIRNPKVLPTGKNIHALDPQAIPTTAAMASAKIVVERLVERQKLENEGKYPETIALVLWGTDNIKTYGESLGQVLWMIGVRPIADTFGRVNRVEPVSLEELGRPRIDVVVNCSGVFRDLFINQMNLLDRAIKMVAELDEPVEQNFVRKHALEQAEALGIDIREAATRVFSNASGSYSANISLAVENSSWNDEKQLQDMYLSRKSFAFDSDAPGAGMAEKKQVFEMALSTAEVTFQNLDSSEISLTDVSHYFDSDPTNLVQSLRKDKKKPSSYIADTTTANAQVRTLSETVRLDARTKLLNPKWYEGMMSSGYEGVREIEKRLSNTVGWSATSGQVDNWVYEEANSTFIQDEEMLNRLMNTNPNSFRKMLQTFLEANGRGYWDTSAENIEKLKELYSQVEDKIEGIDR
As to B1, the binding entry in assay [1] was “binds”.

B2: AD-CPN20, full-length CPN20 fused to the activation domain in the prey vector pGADT7 (protein, UniProt O65282 1-253)
chain: MAATQLTASPVTMSARSLASLDGLRASSVKFSSLKPGTLRQSQFRRLVVKAASVVAPKYTSIKPLGDRVLVKIKEAEEKTLGGILLPSTAQSKPQGGEVVAVGEGRTIGKNKIDITVPTGAQIIYSKYAGTEVEFNDVKHLILKEDDIVGILETEDIKDLKPLNDRVFIKVAEAEEKTAGGLLLTETTKEKPSIGTVIAVGPGSLDEEGKITPLPVSTGSTVLYSKYAGNDFKGKDGSNYIALRASDVMAILS
With B2, the binding result in assay [2] and in assay [3] was “binds” each time.
